Source: article PMC8870324
Results are given in words; binding and its absence hold for the method and conditions named. In cells and extracts the contact can be indirect. A yes stands for co-enrichment or nearness to the bait. Other partners may have been found. Where a sequence is shown, tags or fusion partners need not be part of it.

T1: C-terminally miniTurbo-tagged SMPD4 (UniProt Q9NXE4)
T1 sequence: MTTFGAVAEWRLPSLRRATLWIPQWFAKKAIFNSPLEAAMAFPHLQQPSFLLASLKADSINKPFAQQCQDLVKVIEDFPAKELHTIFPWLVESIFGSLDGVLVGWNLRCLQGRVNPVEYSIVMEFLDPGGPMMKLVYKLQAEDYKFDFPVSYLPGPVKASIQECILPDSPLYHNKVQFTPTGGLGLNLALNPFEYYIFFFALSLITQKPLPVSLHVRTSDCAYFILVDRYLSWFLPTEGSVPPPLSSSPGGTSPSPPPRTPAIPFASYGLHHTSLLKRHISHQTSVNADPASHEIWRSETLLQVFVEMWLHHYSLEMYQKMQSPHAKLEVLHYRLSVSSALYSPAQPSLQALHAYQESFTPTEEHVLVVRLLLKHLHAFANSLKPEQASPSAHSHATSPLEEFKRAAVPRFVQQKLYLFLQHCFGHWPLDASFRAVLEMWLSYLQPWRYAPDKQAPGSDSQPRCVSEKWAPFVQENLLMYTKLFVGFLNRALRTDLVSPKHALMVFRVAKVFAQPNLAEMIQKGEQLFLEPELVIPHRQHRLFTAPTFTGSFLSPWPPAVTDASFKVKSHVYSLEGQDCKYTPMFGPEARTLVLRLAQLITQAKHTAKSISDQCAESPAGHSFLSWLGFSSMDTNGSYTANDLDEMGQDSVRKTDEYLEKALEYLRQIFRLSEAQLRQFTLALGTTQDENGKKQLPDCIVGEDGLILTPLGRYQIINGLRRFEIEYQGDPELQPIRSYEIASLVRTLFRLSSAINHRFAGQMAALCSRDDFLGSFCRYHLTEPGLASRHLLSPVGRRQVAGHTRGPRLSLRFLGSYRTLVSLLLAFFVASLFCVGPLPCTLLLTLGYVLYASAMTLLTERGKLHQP

B1: ALADIN (protein, UniProt Q9NRG9 1-546)
chain: MCSLGLFPPPPPRGQVTLYEHNNELVTGSSYESPPPDFRGQWINLPVLQLTKDPLKTPGRLDHGTRTAFIHHREQVWKRCINIWRDVGLFGVLNEIANSEEEVFEWVKTASGWALALCRWASSLHGSLFPHLSLRSEDLIAEFAQVTNWSSCCLRVFAWHPHTNKFAVALLDDSVRVYNASSTIVPSLKHRLQRNVASLAWKPLSASVLAVACQSCILIWTLDPTSLSTRPSSGCAQVLSHPGHTPVTSLAWAPSGGRLLSASPVDAAIRVWDVSTETCVPLPWFRGGGVTNLLWSPDGSKILATTPSAVFRVWEAQMWTCERWPTLSGRCQTGCWSPDGSRLLFTVLGEPLIYSLSFPERCGEGKGCVGGAKSATIVADLSETTIQTPDGEERLGGEAHSMVWDPSGERLAVLMKGKPRVQDGKPVILLFRTRNSPVFELLPCGIIQGEPGAQPQLITFHPSFNKGALLSVGWSTGRIAHIPLYFVNAQFPRFSPVLGRAQEPPAGGGGSIHDLPLFTETSPTSAPWDPLPGPPPVLPHSPHSHL
B2: NDC1 (protein, UniProt Q9BTX1 1-674)
chain: MATAVSRPCAGRSRDILWRVLGWRIVASIVWSVLFLPICTTVFIIFSRIDLFHPIQWLSDSFSDLYSSYVIFYFLLLSVVIIIISIFNVEFYAVVPSIPCSRLALIGKIIHPQQLMHSFIHAAMGMVMAWCAAVITQGQYSFLVVPCTGTNSFGSPAAQTCLNEYHLFFLLTGAFMGYSYSLLYFVNNMNYLPFPIIQQYKFLRFRRSLLLLVKHSCVESLFLVRNFCILYYFLGYIPKAWISTAMNLHIDEQVHRPLDTVSGLLNLSLLYHVWLCGVFLLTTWYVSWILFKIYATEAHVFPVQPPFAEGSDECLPKVLNSNPPPIIKYLALQDLMLLSQYSPSRRQEVFSLSQPGGHPHNWTAISRECLNLLNGMTQKLILYQEAAATNGRVSSSYPVEPKKLNSPEETAFQTPKSSQMPRPSVPPLVKTSLFSSKLSTPDVVSPFGTPFGSSVMNRMAGIFDVNTCYGSPQSPQLIRRGPRLWTSASDQQMTEFSNPSPSTSISAEGKTMRQPSVIYSWIQNKREQIKNFLSKRVLIMYFFSKHPEASIQAVFSDAQMHIWALEGLSHLVAASFTEDRFGVVQTTLPAILNTLLTLQEAVDKYFKLPHASSKPPRISGSLVDTSYKTLRFAFRASLKTAIYRITTTFGEHLNAVQASAEHQKRLQQFLEFKE
B3: NUP133 (protein, UniProt Q8WUM0 1-1156)
chain: MFPAAPSPRTPGTGSRRGPLAGLGPGSTPRTASRKGLPLGSAVSSPVLFSPVGRRSSLSSRGTPTRMFPHHSITESVNYDVKTFGSSLPVKVMEALTLAEVDDQLTINIDEGGWACLVCKEKLIIWKIALSPITKLSVCKELQLPPSDFHWSADLVALSYSSPSGEAHSTQAVAVMVATREGSIRYWPSLAGEDTYTEAFVDSGGDKTYSFLTAVQGGSFILSSSGSQLIRLIPESSGKIHQHILPQGQGMLSGIGRKVSSLFGILSPSSDLTLSSVLWDRERSSFYSLTSSNISKWELDDSSEKHAYSWDINRALKENITDAIWGSESNYEAIKEGVNIRYLDLKQNCDGLVILAAAWHSADNPCLIYYSLITIEDNGCQMSDAVTVEVTQYNPPFQSEDLILCQLTVPNFSNQTAYLYNESAVYVCSTGTGKFSLPQEKIVFNAQGDSVLGAGACGGVPIIFSRNSGLVSITSRENVSILAEDLEGSLASSVAGPNSESMIFETTTKNETIAQEDKIKLLKAAFLQYCRKDLGHAQMVVDELFSSHSDLDSDSELDRAVTQISVDLMDDYPASDPRWAESVPEEAPGFSNTSLIILHQLEDKMKAHSFLMDFIHQVGLFGRLGSFPVRGTPMATRLLLCEHAEKLSAAIVLKNHHSRLSDLVNTAILIALNKREYEIPSNLTPADVFFREVSQVDTICECLLEHEEQVLRDAPMDSIEWAEVVINVNNILKDMLQAASHYRQNRNSLYRREESLEKEPEYVPWTATSGPGGIRTVIIRQHEIVLKVAYPQADSNLRNIVTEQLVALIDCFLDGYVSQLKSVDKSSNRERYDNLEMEYLQKRSDLLSPLLSLGQYLWAASLAEKYCDFDILVQMCEQTDNQSRLQRYMTQFADQNFSDFLFRWYLEKGKRGKLLSQPISQHGQLANFLQAHEHLSWLHEINSQELEKAHATLLGLANMETRYFAKKKTLLGLSKLAALASDFSEDMLQEKIEEMAEQERFLLHQETLPEQLLAEKQLNLSAMPVLTAPQLIGLYICEENRRANEYDFKKALDLLEYIDEEEDININDLKLEILCKALQRDNWSSSDGKDDPIEVSKDSIFVKILQKLLKDGIQLSEYLPEVKDLLQADQLGSLKSNPYFEFVLKANYEYYVQGQI
B4: NUP85 (protein, UniProt Q9BW27 1-656)
chain: MEELDGEPTVTLIPGVNSKKNQMYFDWGPGEMLVCETSFNKKEKSEMVPSCPFIYIIRKDVDVYSQILRKLFNESHGIFLGLQRIDEELTGKSRKSQLVRVSKNYRSVIRACMEEMHQVAIAAKDPANGRQFSSQVSILSAMELIWNLCEILFIEVAPAGPLLLHLLDWVRLHVCEVDSLSADVLGSENPSKHDSFWNLVTILVLQGRLDEARQMLSKEADASPASAGICRIMGDLMRTMPILSPGNTQTLTELELKWQHWHEECERYLQDSTFATSPHLESLLKIMLGDEAALLEQKELLSNWYHFLVTRLLYSNPTVKPIDLHYYAQSSLDLFLGGESSPEPLDNILLAAFEFDIHQVIKECSIALSNWWFVAHLTDLLDHCKLLQSHNLYFGSNMREFLLLEYASGLFAHPSLWQLGVDYFDYCPELGRVSLELHIERIPLNTEQKALKVLRICEQRQMTEQVRSICKILAMKAVRNNRLGSALSWSIRAKDAAFATLVSDRFLRDYCERGCFSDLDLIDNLGPAMMLSDRLTFLGKYREFHRMYGEKRFADAASLLLSLMTSRIAPRSFWMTLLTDALPLLEQKQVIFSAEQTYELMRCLEDLTSRRPVHGESDTEQLQDDDIETTKVEMLRLSLARNLARAIIREGSLEGS
B5: NUP155 (protein, UniProt O75694 1-1391)
chain: MPSSLLGAAMPASTSAAALQEALENAGRLIDRQLQEDRMYPDLSELLMVSAPNNPTVSGMSDMDYPLQGPGLLSVPNLPEISSIRRVPLPPELVEQFGHMQCNCMMGVFPPISRAWLTIDSDIFMWNYEDGGDLAYFDGLSETILAVGLVKPKAGIFQPHVRHLLVLATPVDIVILGLSYANLQTGSGVLNDSLSGGMQLLPDPLYSLPTDNTYLLTITSTDNGRIFLAGKDGCLYEVAYQAEAGWFSQRCRKINHSKSSLSFLVPSLLQFTFSEDDPILQIAIDNSRNILYTRSEKGVIQVYDLGQDGQGMSRVASVSQNAIVSAAGNIARTIDRSVFKPIVQIAVIENSESLDCQLLAVTHAGVRLYFSTCPFRQPLARPNTLTLVHVRLPPGFSASSTVEKPSKVHRALYSKGILLMAASENEDNDILWCVNHDTFPFQKPMMETQMTAGVDGHSWALSAIDELKVDKIITPLNKDHIPITDSPVVVQQHMLPPKKFVLLSAQGSLMFHKLRPVDQLRHLLVSNVGGDGEEIERFFKLHQEDQACATCLILACSTAACDREVSAWATRAFFRYGGEAQMRFPTTLPPPSNVGPILGSPVYSSSPVPSGSPYPNPSFLGTPSHGIQPPAMSTPVCALGNPATQATNMSCVTGPEIVYSGKHNGICIYFSRIMGNIWDASLVVERIFKSGNREITAIESSVPCQLLESVLQELKGLQEFLDRNSQFAGGPLGNPNTTAKVQQRLIGFMRPENGNPQQMQQELQRKFHEAQLSEKISLQAIQQLVRKSYQALALWKLLCEHQFTIIVAELQKELQEQLKITTFKDLVIRDKELTGALIASLINCYIRDNAAVDGISLHLQDICPLLYSTDDAICSKANELLQRSRQVQNKTEKERMLRESLKEYQKISNQVDLSNVCAQYRQVRFYEGVVELSLTAAEKKDPQGLGLHFYKHGEPEEDIVGLQAFQERLNSYKCITDTLQELVNQSKAAPQSPSVPKKPGPPVLSSDPNMLSNEEAGHHFEQMLKLSQRSKDELFSIALYNWLIQVDLADKLLQVASPFLEPHLVRMAKVDQNRVRYMDLLWRYYEKNRSFSNAARVLSRLADMHSTEISLQQRLEYIARAILSAKSSTAISSIAADGEFLHELEEKMEVARIQLQIQETLQRQYSHHSSVQDAVSQLDSELMDITKLYGEFADPFKLAECKLAIIHCAGYSDPILVQTLWQDIIEKELSDSVTLSSSDRMHALSLKIVLLGKIYAGTPRFFPLDFIVQFLEQQVCTLNWDVGFVIQTMNEIGVPLPRLLEVYDQLFKSRDPFWNRMKKPLHLLDCIHVLLIRYVENPSQVLNCERRRFTNLCLDAVCGYLVELQSMSSSVAVQAITGNFKSLQAKLERLH

Target: T1, C-terminally miniTurbo-tagged SMPD4
Assay: proximity labelling; miniTurbo fusion baits transfected in HEK293T; 500 µM biotin for 30 min, 24 h after transfection; RIPA lysis, pull-down on streptavidin magnetic beads, on-bead trypsin digestion, nLC-MS/MS; enrichment by emPAI score against the NLS-miniTurbo control; two independent experiments

binding, binds:
B1
B2
B3
B4
B5
